Source: patent US20260125468A1
No constants are given. Whether binding was seen depends on the method and setting. Some entries that bind do so weakly or less than the wild type.

Amino acid sequences for entries named in this document (tags omitted). A change or cut given only in a name is not applied to a line headed by its entry.
UniProt Q95LI5: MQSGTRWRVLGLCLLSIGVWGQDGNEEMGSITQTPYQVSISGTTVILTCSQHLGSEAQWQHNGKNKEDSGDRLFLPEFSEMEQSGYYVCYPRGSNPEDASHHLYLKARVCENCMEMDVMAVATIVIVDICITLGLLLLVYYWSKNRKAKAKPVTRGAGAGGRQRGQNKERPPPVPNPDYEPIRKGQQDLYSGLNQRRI
UniProt Q95LI8: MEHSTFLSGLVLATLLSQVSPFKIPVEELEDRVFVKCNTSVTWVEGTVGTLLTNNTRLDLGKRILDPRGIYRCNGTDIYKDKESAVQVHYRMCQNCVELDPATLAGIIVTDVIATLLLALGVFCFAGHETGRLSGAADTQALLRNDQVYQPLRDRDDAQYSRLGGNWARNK
UniProt Q95LI7: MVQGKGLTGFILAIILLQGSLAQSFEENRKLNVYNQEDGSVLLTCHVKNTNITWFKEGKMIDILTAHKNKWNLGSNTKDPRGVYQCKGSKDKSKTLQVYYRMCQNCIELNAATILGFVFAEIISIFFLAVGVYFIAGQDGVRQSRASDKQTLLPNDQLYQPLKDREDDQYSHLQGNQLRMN

Assays:
[1] = biological target: T1, CD3 on T cells in cynomolgus monkey PBMCs (cynomolgus monkey) (UniProt Q95LI5+Q95LI8+Q95LI7); experiment: flow cytometry on cynomolgus monkey PBMCs, diluted from 200 nM
[2] = biological target: T1, CD3 on T cells in cynomolgus monkey PBMCs (cynomolgus monkey); experiment: FACS on cynomolgus monkey PBMCs, 2-fold serial dilution from 200 nM [A]
[3] = biological target: T1, CD3 on T cells in cynomolgus monkey PBMCs (cynomolgus monkey); experiment: flow cytometry and cytotoxicity with cynomolgus monkey PBMCs (summary of FIG. 16 and FIG. 17)

Measured: binding

B1: PR010991, anti-CD3 3G11-HCAb hIgG1(C220S, AAA) (antibody, V domains shown)
VH: RVHLAESGGGLVQAGGSLRLSCAASGSRLNDNAMAWFRQAPGKEREFVGSIFWTGGNTYYADAVKGRLTISRDNAKNALYLQMNSLKPEDTAVYYCAASRVVWYYCSGYGCSRAGDYVYWGQGTQVTVSS
binds: [1] | [2] | [3]
